In paper doi:10.1101/2025.07.09.663943, “A multiplex extracellular interactome screening method employing high-avidity nanoparticles” (bioRxiv, 2025):
Results are given in words; binding and its absence hold for the method and conditions named. Some entries that bind do so weakly or less than the wild type.

Target: T1, CEACAM4 ECD-hFc-ST3 (human) (UniProt O75871)
T1 sequence: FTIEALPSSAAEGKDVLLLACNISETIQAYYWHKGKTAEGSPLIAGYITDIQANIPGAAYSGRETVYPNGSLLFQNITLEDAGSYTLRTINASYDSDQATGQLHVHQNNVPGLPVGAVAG
Assay: Multiplex Interactome Assay (MPIA; bead-based, Luminex FLEXMAP 3D); prey nanoparticle preparation of the quality control in Fig. 3B; run and kind of SC3 bead (monomeric or dimeric) not stated; both purified

B1: PD-L2 ECD-hFc-ST3 (Fc fusion, UniProt Q9BQ51 20-220)
chain: LFTVTVPKELYIIEHGSNVTLECNFDTGSHVNLGAITASLQKVENDTSPHRERATLLEEQLPLGKASFHIPQVQVRDEGQYQCIIIYGVAWDYKYLTLKVKASYRKINTHILKVPETDEVELTCQATGYPLAEVSWPNVSVPANTSHSRTPEGLYQVTSVLRLKPPPGRNFSCVFWNTHVRELTLASIDLQSQMEPRTHPT
Question: Which binding does the source give for B1 here?
Answer: binds
